The supplement of paper PMC7661543
The effect of the compound repeats well; differences between the knockouts mostly do not.

System: SKBR3
Assay: relative cell number vs DMSO control (72 h) (% of DMSO); higher = less growth inhibition (more cells)
Protocol: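 QMAP-Seq: a pool of 5 breast cancer cell lines (ZR-75-1, SKBR3, HCC-38, MDA-MB-231, BT-20), each carrying 12 doxycycline-inducible Cas9 sgRNA perturbations (11 knockouts plus non-targeting sgNT), was treated with compounds for 72 h at four 10-fold doses (10 nM-10 uM or 1 nM-1 uM range). Barcodes were amplified and sequenced, and cell number was interpolated from 293T spike-in standard curves. The result is expressed as % of the median of DMSO wells. Two biological replicates.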

CN(C)c1cc(NC(=O)CNC(C)(C)C)c(O)c2c1C[C@H]1C[C@H]3[C@H](N(C)C)C(O)=C(C(N)=O)C(=O)[C@@]3(O)C(O)=C1C2=O [Tigecycline]
Details | relative cell number
sgRNA knockout: sgATF3, 10 nM | 120
sgRNA knockout: sgATF3, 100 nM | 104
sgRNA knockout: sgATF3, 1000 nM | 114
sgRNA knockout: sgATF3, 10000 nM | 109
sgRNA knockout: sgATF4, 10 nM | 103
sgRNA knockout: sgATF4, 100 nM | 93.5
sgRNA knockout: sgATF4, 1000 nM | 99.5
sgRNA knockout: sgATF4, 10000 nM | 107
sgRNA knockout: sgATF6, 10 nM | 89.8
sgRNA knockout: sgATF6, 100 nM | 110
sgRNA knockout: sgATF6, 1000 nM | 89.8
sgRNA knockout: sgATF6, 10000 nM | 107
sgRNA knockout: sgATG7, 10 nM | 99.6
sgRNA knockout: sgATG7, 100 nM | 90.1
sgRNA knockout: sgATG7, 1000 nM | 124.4
sgRNA knockout: sgATG7, 10000 nM | 126
sgRNA knockout: sgERN1, 10 nM | 105
sgRNA knockout: sgERN1, 100 nM | 93.2
sgRNA knockout: sgERN1, 1000 nM | 136
sgRNA knockout: sgERN1, 10000 nM | 98.6
sgRNA knockout: sgHSF1, 10 nM | 83.2
sgRNA knockout: sgHSF1, 100 nM | 90.4
sgRNA knockout: sgHSF1, 1000 nM | 93.6
sgRNA knockout: sgHSF1, 10000 nM | 74.4
sgRNA knockout: sgHSF2, 10 nM | 98.2
sgRNA knockout: sgHSF2, 100 nM | 100
sgRNA knockout: sgHSF2, 1000 nM | 95.2
sgRNA knockout: sgHSF2, 10000 nM | 101
sgRNA knockout: sgKEAP1, 10 nM | 97.6
sgRNA knockout: sgKEAP1, 100 nM | 75.6
sgRNA knockout: sgKEAP1, 1000 nM | 99.8
sgRNA knockout: sgKEAP1, 10000 nM | 82.7
sgRNA knockout: sgNFE2L2, 10 nM | 92.1
sgRNA knockout: sgNFE2L2, 100 nM | 94.8
sgRNA knockout: sgNFE2L2, 1000 nM | 89.7
sgRNA knockout: sgNFE2L2, 10000 nM | 105
sgRNA knockout: sgSLC35F2, 10 nM | 96.6
sgRNA knockout: sgSLC35F2, 100 nM | 105
sgRNA knockout: sgSLC35F2, 1000 nM | 92.5
sgRNA knockout: sgSLC35F2, 10000 nM | 104
sgRNA knockout: sgXBP1, 10 nM | 107
sgRNA knockout: sgXBP1, 100 nM | 76.7
sgRNA knockout: sgXBP1, 1000 nM | 121
sgRNA knockout: sgXBP1, 10000 nM | 89.2

C[C@@H](Oc1cc(-c2cnn(C3CCNCC3)c2)cnc1N)c1c(Cl)ccc(F)c1Cl [Crizotinib]
Details | relative cell number
sgRNA knockout: sgATF3, 10 nM | 76.9
sgRNA knockout: sgATF3, 100 nM | 84.8
sgRNA knockout: sgATF3, 1000 nM | 80.2
sgRNA knockout: sgATF3, 10000 nM | 27.4
sgRNA knockout: sgATF4, 10 nM | 96.7
sgRNA knockout: sgATF4, 100 nM | 82.8
sgRNA knockout: sgATF4, 1000 nM | 80.51
sgRNA knockout: sgATF4, 10000 nM | 25.9
sgRNA knockout: sgATF6, 10 nM | 82
sgRNA knockout: sgATF6, 100 nM | 88.2
sgRNA knockout: sgATF6, 1000 nM | 67.8
sgRNA knockout: sgATF6, 10000 nM | 29.2
sgRNA knockout: sgATG7, 10 nM | 103
sgRNA knockout: sgATG7, 100 nM | 71.2
sgRNA knockout: sgATG7, 1000 nM | 70.2
sgRNA knockout: sgATG7, 10000 nM | 31.5
sgRNA knockout: sgERN1, 10 nM | 94.3
sgRNA knockout: sgERN1, 100 nM | 106
sgRNA knockout: sgERN1, 1000 nM | 85.9
sgRNA knockout: sgERN1, 10000 nM | 24.1
sgRNA knockout: sgHSF1, 10 nM | 91.8
sgRNA knockout: sgHSF1, 100 nM | 88.5
sgRNA knockout: sgHSF1, 1000 nM | 57.3
sgRNA knockout: sgHSF1, 10000 nM | 29.7
sgRNA knockout: sgHSF2, 10 nM | 107
sgRNA knockout: sgHSF2, 100 nM | 90.6
sgRNA knockout: sgHSF2, 1000 nM | 62.9
sgRNA knockout: sgHSF2, 10000 nM | 26.3
sgRNA knockout: sgKEAP1, 10 nM | 79.6
sgRNA knockout: sgKEAP1, 100 nM | 83
sgRNA knockout: sgKEAP1, 1000 nM | 69.3
sgRNA knockout: sgKEAP1, 10000 nM | 29.2
sgRNA knockout: sgNFE2L2, 10 nM | 78.8
sgRNA knockout: sgNFE2L2, 100 nM | 81.8
sgRNA knockout: sgNFE2L2, 1000 nM | 73.4
sgRNA knockout: sgNFE2L2, 10000 nM | 24.1
sgRNA knockout: sgSLC35F2, 10 nM | 92.7
sgRNA knockout: sgSLC35F2, 100 nM | 105
sgRNA knockout: sgSLC35F2, 1000 nM | 75.3
sgRNA knockout: sgSLC35F2, 10000 nM | 26.1
sgRNA knockout: sgXBP1, 10 nM | 107
sgRNA knockout: sgXBP1, 100 nM | 102
sgRNA knockout: sgXBP1, 1000 nM | 74.2
sgRNA knockout: sgXBP1, 10000 nM | 33.1

CC[C@@]1(O)C(=O)OCc2c1cc1n(c2=O)Cc2cc3c(CN(C)C)c(O)ccc3nc2-1 [Topotecan]
Details | relative cell number
sgRNA knockout: sgATF3, 10 nM | 78.2
sgRNA knockout: sgATF3, 100 nM | 19.6
sgRNA knockout: sgATF3, 1000 nM | 17
sgRNA knockout: sgATF3, 10000 nM | 9.65
sgRNA knockout: sgATF4, 10 nM | 68.9
sgRNA knockout: sgATF4, 100 nM | 36.5
sgRNA knockout: sgATF4, 1000 nM | 16.8
sgRNA knockout: sgATF4, 10000 nM | 7.13
sgRNA knockout: sgATF6, 10 nM | 63.3
sgRNA knockout: sgATF6, 100 nM | 30
sgRNA knockout: sgATF6, 1000 nM | 14
sgRNA knockout: sgATF6, 10000 nM | 8.34
sgRNA knockout: sgATG7, 10 nM | 56.2
sgRNA knockout: sgATG7, 100 nM | 34.4
sgRNA knockout: sgATG7, 1000 nM | 12.7
sgRNA knockout: sgATG7, 10000 nM | 6.94
sgRNA knockout: sgERN1, 10 nM | 57.3
sgRNA knockout: sgERN1, 100 nM | 39.8
sgRNA knockout: sgERN1, 1000 nM | 20.3
sgRNA knockout: sgERN1, 10000 nM | 7.15
sgRNA knockout: sgHSF1, 10 nM | 72.1
sgRNA knockout: sgHSF1, 100 nM | 36.7
sgRNA knockout: sgHSF1, 1000 nM | 15.3
sgRNA knockout: sgHSF1, 10000 nM | 8.95
sgRNA knockout: sgHSF2, 10 nM | 77
sgRNA knockout: sgHSF2, 100 nM | 45.1
sgRNA knockout: sgHSF2, 1000 nM | 15.6
sgRNA knockout: sgHSF2, 10000 nM | 8.27
sgRNA knockout: sgKEAP1, 10 nM | 63.2
sgRNA knockout: sgKEAP1, 100 nM | 26
sgRNA knockout: sgKEAP1, 1000 nM | 14.2
sgRNA knockout: sgKEAP1, 10000 nM | 8
sgRNA knockout: sgNFE2L2, 10 nM | 89.5
sgRNA knockout: sgNFE2L2, 100 nM | 27.9
sgRNA knockout: sgNFE2L2, 1000 nM | 11.2
sgRNA knockout: sgNFE2L2, 10000 nM | 8.9
sgRNA knockout: sgSLC35F2, 10 nM | 66.5
sgRNA knockout: sgSLC35F2, 100 nM | 34
sgRNA knockout: sgSLC35F2, 1000 nM | 12.8
sgRNA knockout: sgSLC35F2, 10000 nM | 6.44
sgRNA knockout: sgXBP1, 10 nM | 73.9
sgRNA knockout: sgXBP1, 100 nM | 39.49
sgRNA knockout: sgXBP1, 1000 nM | 16
sgRNA knockout: sgXBP1, 10000 nM | 10

O=C(c1cc(Cc2n[nH]c(=O)c3ccccc23)ccc1F)N1CCN(C(=O)C2CC2)CC1 [Olaparib]
Details | relative cell number
sgRNA knockout: sgATF3, 10 nM | 101
sgRNA knockout: sgATF3, 100 nM | 119
sgRNA knockout: sgATF3, 1000 nM | 104
sgRNA knockout: sgATF3, 10000 nM | 56.3
sgRNA knockout: sgATF4, 10 nM | 88.3
sgRNA knockout: sgATF4, 100 nM | 87.2
sgRNA knockout: sgATF4, 1000 nM | 77.3
sgRNA knockout: sgATF4, 10000 nM | 62.8
sgRNA knockout: sgATF6, 10 nM | 96
sgRNA knockout: sgATF6, 100 nM | 86.9
sgRNA knockout: sgATF6, 1000 nM | 62.5
sgRNA knockout: sgATF6, 10000 nM | 51.8
sgRNA knockout: sgATG7, 10 nM | 80.6
sgRNA knockout: sgATG7, 100 nM | 127
sgRNA knockout: sgATG7, 1000 nM | 82.5
sgRNA knockout: sgATG7, 10000 nM | 45.2
sgRNA knockout: sgERN1, 10 nM | 75.2
sgRNA knockout: sgERN1, 100 nM | 83.1
sgRNA knockout: sgERN1, 1000 nM | 82
sgRNA knockout: sgERN1, 10000 nM | 49.6
sgRNA knockout: sgHSF1, 10 nM | 82.5
sgRNA knockout: sgHSF1, 100 nM | 72.5
sgRNA knockout: sgHSF1, 1000 nM | 76.1
sgRNA knockout: sgHSF1, 10000 nM | 57.5
sgRNA knockout: sgHSF2, 10 nM | 101
sgRNA knockout: sgHSF2, 100 nM | 74.9
sgRNA knockout: sgHSF2, 1000 nM | 67.1
sgRNA knockout: sgHSF2, 10000 nM | 58.4
sgRNA knockout: sgKEAP1, 10 nM | 91.2
sgRNA knockout: sgKEAP1, 100 nM | 83.4
sgRNA knockout: sgKEAP1, 1000 nM | 74.5
sgRNA knockout: sgKEAP1, 10000 nM | 55.5
sgRNA knockout: sgNFE2L2, 10 nM | 91.45
sgRNA knockout: sgNFE2L2, 100 nM | 94.9
sgRNA knockout: sgNFE2L2, 1000 nM | 87.3
sgRNA knockout: sgNFE2L2, 10000 nM | 64
sgRNA knockout: sgSLC35F2, 10 nM | 86.2
sgRNA knockout: sgSLC35F2, 100 nM | 87.2
sgRNA knockout: sgSLC35F2, 1000 nM | 76.4
sgRNA knockout: sgSLC35F2, 10000 nM | 60.7
sgRNA knockout: sgXBP1, 10 nM | 82.5
sgRNA knockout: sgXBP1, 100 nM | 107
sgRNA knockout: sgXBP1, 1000 nM | 84
sgRNA knockout: sgXBP1, 10000 nM | 68
